The supplement of paper PMC10849652
Some of the results follow.

Chains of the proteins cited; added tags and fusions are not shown. Lines headed by an entry give the natural chain unless they say otherwise; changes in a name come on top.
UniProt Q14739: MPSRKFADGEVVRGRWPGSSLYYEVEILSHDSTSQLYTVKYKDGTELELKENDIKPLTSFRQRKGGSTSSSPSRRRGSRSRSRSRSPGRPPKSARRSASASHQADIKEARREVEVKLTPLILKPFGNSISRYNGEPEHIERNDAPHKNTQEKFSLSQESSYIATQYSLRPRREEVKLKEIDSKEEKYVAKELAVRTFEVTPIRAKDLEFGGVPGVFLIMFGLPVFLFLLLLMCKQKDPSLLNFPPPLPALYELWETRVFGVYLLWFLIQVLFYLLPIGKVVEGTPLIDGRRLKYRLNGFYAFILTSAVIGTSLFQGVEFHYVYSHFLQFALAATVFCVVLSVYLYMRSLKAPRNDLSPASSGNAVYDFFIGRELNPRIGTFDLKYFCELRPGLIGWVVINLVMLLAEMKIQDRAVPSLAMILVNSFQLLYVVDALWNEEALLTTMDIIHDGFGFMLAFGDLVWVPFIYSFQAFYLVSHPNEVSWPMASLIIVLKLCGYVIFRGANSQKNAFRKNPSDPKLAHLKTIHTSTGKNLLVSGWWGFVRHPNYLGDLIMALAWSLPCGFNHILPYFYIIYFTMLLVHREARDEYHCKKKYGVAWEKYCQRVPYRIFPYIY
UniProt P17931, whole entry, looked up: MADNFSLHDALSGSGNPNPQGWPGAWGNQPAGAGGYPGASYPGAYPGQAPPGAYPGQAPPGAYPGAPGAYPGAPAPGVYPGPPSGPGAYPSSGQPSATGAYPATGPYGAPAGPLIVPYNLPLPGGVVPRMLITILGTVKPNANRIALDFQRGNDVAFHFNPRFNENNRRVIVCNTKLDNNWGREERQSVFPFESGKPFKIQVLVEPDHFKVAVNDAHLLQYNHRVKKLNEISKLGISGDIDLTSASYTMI
UniProt Q71RC2, whole entry, looked up: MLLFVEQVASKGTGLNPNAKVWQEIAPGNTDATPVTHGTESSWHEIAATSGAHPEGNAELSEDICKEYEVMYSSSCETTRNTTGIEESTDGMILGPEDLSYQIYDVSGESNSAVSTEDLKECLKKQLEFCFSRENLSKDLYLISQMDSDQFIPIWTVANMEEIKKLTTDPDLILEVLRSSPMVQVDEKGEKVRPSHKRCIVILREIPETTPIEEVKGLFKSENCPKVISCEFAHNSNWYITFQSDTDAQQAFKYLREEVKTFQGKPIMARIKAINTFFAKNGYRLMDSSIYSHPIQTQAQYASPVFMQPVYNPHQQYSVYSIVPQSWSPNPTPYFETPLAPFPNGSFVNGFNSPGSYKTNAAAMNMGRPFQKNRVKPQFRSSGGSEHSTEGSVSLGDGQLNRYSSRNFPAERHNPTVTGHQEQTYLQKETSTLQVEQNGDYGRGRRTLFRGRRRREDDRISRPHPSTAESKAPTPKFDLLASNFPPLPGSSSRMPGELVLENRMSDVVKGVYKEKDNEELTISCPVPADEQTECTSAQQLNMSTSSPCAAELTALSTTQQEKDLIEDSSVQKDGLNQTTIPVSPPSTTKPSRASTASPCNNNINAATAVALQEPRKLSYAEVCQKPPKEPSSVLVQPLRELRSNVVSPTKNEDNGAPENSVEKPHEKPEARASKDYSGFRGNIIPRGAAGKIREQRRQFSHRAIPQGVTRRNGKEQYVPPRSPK
UniProt Q53H82: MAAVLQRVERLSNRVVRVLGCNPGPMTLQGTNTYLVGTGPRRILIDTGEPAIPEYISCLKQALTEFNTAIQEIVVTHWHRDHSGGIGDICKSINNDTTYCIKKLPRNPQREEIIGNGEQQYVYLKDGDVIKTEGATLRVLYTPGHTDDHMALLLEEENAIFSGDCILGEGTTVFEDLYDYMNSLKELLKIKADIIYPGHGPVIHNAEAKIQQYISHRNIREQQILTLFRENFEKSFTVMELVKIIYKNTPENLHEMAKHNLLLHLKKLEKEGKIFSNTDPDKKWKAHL
UniProt Q9Y2Q5, whole entry, looked up: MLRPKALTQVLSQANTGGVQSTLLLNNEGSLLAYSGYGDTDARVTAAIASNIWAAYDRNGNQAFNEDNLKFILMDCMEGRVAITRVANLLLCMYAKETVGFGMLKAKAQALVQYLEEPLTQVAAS
UniProt Q14693: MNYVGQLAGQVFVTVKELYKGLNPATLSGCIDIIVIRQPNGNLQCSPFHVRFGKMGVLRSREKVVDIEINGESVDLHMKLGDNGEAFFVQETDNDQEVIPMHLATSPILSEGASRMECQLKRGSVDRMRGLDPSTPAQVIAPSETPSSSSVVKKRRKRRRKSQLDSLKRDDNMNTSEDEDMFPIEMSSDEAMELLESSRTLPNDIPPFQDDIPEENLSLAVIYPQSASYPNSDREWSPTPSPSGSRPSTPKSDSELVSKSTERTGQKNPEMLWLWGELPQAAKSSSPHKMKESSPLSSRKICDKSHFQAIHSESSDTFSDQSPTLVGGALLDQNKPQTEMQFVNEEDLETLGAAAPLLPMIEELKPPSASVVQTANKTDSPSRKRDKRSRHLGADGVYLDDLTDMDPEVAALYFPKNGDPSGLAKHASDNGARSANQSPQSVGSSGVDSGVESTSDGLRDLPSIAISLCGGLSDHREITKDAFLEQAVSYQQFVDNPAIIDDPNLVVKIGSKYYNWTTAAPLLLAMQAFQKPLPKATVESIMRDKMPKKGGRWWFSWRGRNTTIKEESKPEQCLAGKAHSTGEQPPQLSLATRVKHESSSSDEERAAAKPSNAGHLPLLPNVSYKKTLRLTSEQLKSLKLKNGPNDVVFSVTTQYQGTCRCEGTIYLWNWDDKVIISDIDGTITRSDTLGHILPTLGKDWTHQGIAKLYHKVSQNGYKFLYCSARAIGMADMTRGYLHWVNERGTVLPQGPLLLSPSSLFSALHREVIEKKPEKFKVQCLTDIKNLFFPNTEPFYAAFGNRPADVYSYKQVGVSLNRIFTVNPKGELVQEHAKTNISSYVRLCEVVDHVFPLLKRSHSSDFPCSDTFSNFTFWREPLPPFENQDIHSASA
UniProt Q9NS86: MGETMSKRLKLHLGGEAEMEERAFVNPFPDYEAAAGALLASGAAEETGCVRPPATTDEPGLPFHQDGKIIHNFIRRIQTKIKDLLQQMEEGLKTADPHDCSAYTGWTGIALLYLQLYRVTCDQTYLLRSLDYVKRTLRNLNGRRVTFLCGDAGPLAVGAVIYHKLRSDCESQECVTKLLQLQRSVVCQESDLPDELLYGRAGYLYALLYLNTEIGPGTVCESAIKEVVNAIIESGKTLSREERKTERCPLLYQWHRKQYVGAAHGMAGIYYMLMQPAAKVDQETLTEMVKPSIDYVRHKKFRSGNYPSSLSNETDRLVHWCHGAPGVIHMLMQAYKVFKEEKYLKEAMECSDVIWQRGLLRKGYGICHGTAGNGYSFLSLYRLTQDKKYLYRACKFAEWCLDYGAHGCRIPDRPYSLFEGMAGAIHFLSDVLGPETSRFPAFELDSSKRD
UniProt Q14847: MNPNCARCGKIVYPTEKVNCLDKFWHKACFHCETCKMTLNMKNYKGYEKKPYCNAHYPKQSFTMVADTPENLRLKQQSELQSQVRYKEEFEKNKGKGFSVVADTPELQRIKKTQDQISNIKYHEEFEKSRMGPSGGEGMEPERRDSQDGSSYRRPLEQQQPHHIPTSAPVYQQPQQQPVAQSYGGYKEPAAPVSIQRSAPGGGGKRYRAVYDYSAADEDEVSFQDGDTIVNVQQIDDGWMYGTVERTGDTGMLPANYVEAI
UniProt Q15031: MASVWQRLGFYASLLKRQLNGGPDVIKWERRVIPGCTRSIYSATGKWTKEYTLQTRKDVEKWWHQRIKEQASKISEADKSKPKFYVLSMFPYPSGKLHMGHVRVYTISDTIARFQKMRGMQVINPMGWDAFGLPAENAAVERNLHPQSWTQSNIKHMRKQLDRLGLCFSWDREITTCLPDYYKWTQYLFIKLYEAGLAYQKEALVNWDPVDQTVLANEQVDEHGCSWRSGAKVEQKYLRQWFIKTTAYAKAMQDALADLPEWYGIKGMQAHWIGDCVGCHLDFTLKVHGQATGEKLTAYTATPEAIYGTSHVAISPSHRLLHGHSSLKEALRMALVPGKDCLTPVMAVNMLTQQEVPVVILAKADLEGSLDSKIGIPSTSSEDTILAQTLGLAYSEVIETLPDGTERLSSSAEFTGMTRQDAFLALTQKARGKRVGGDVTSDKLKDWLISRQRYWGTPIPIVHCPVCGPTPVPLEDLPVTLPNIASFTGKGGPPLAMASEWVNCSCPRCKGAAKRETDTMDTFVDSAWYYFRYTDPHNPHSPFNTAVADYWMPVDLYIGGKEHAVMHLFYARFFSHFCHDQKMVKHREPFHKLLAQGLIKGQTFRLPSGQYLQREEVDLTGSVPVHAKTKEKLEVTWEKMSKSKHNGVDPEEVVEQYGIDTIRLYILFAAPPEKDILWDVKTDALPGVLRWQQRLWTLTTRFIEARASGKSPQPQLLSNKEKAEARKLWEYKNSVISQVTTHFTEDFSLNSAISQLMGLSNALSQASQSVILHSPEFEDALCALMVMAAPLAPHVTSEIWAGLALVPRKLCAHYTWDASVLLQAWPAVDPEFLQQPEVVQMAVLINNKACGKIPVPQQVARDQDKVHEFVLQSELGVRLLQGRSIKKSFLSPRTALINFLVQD
UniProt P13473: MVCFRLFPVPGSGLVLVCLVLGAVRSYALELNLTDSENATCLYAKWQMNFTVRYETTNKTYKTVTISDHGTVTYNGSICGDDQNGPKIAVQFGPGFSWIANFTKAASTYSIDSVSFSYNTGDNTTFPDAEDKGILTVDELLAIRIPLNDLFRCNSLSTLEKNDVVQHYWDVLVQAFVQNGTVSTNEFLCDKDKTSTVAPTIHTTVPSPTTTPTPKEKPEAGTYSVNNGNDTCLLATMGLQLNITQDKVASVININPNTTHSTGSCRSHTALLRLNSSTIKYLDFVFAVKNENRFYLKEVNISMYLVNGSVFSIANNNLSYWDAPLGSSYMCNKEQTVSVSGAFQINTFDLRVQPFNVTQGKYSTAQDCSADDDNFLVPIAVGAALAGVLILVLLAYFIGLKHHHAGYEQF
UniProt Q4G0J3: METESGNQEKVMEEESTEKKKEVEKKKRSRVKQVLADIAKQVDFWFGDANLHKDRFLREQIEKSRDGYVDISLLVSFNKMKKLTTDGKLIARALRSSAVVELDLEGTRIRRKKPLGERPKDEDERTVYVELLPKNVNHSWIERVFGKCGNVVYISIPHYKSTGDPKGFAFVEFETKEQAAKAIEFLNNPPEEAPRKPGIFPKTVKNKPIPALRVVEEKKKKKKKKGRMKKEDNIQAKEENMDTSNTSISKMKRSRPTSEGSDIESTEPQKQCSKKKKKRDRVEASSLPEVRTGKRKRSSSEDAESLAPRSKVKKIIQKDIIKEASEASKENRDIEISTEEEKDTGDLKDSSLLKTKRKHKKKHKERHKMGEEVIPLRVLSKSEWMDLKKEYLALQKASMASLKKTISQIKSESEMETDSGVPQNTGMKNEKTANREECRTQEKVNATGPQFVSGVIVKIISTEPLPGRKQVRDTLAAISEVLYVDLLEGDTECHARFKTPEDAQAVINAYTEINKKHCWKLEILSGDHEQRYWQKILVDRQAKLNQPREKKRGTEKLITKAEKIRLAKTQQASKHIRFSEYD
UniProt Q6UWP7: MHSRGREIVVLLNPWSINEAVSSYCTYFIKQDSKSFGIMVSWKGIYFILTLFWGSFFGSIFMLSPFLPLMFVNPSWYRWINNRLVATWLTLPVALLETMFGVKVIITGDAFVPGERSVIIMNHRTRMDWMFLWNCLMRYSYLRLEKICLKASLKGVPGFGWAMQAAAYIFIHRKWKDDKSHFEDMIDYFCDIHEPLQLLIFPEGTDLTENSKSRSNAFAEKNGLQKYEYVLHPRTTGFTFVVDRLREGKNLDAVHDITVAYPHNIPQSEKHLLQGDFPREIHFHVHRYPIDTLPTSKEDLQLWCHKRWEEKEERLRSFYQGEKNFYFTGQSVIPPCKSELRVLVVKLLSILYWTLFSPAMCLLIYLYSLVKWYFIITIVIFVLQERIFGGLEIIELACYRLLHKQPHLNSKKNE
UniProt Q9UGP4: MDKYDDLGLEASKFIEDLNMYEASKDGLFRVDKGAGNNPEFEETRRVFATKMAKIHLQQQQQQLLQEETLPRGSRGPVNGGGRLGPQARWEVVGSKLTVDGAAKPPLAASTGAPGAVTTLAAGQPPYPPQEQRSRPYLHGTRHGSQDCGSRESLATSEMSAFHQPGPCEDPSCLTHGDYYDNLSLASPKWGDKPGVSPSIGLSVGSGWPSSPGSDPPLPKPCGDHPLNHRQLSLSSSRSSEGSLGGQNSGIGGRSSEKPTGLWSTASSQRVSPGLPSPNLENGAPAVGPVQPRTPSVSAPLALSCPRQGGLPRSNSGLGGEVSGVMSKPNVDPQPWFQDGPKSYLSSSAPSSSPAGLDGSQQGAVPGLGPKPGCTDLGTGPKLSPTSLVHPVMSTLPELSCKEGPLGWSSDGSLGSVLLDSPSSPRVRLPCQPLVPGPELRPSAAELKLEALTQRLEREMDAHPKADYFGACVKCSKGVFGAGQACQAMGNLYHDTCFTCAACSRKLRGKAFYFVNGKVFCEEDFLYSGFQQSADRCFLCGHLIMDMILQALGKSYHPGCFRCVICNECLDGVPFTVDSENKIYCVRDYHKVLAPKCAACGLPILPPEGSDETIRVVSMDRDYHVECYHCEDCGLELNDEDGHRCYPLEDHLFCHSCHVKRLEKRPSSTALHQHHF

Tests used:
Assay in all cases: log2 fold change, soluble protein after heating vs DMSO (PISA); higher = thermal stabilisation; K562 cells, 10 uM, 30 min; active = over 0.2 and 3.5 SD of the protein, either way, in both replicates (recomputed)
[1] = compound: C1=CC=C(C=C1)[C@H](COC2=CC3=C(C=C2)NC(=O)N3)NC(=O)C4=CC=CN(C4=O)CC5=CC(=C(C=C5)F)F
Summary of the method: (§1)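 Soluble protein was quantified by TMTpro 16plex LC-MS/MS after channel sums were equalised. It was obtained as the supernatant after 21,000xg for 90 min from pooled aliquots of K562 cells (2×10^6 cells/mL, 10 μM compound, 30 min) heated for 3 min across 48°C-58°C and extracted in PBS with 0.5% NP-40 at 4°C. Thermal stability values are relative to control samples and come from duplicates. They are given as log2 fold changes.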

[2] = compound: CC1=C(SC2=C1C(=N[C@H](C3=NN=C(N32)C)CC(=O)N)C4=CC=C(C=C4)Cl)C
Summary of the method: as §1

[3] = compound: CC1=C2C(=CC=C1)N=C(N(C2=O)C3=CC=CC=C3C)CN4C=NC5=C(N=CN=C54)N
Summary of the method: as §1

[4] = compound: Cc1sc2c(c1C)C(c1ccc(Cl)cc1)=N[C@@H](CC(=O)OC(C)(C)C)c1nnc(C)n1-2
Summary of the method: as §1

[5] = compound: c1ccc([C@@H]2C[C@H]2NC2CCNCC2)cc1
Summary of the method: as §1

Measured: log2 fold change

LBR (UniProt Q14739)
inactive: [1] -0.105 | [2] 0.051 | [3] 0.011 | [4] -0.054 | [5] -0.005

LMBRD1 (UniProt Q9NUN5)
inactive: [1] 0.013 | [2] 0.099 | [3] 0.143 | [4] -0.178 | [5] 0.039

LGALS3 (UniProt P17931)
inactive: [1] -0.103

LARP4 isoform 4 (UniProt Q71RC2)
inactive: [1] 0.069 | [2] -0.071 | [3] 0 | [4] 0.093 | [5] 0.036

L2HGDH (UniProt Q9H9P8)
inactive: [1] -0.031 | [2] 0.07 | [3] 0.078 | [4] 0.018 | [5] -0.029

LEPR (UniProt P48357)
inactive: [1] 0.008 | [2] 0.032 | [3] 0.019 | [4] 0.046 | [5] 0.067

LACTB2 (UniProt Q53H82)
inactive: [1] 0.013 | [2] -0.039 | [3] 0.011 | [4] -0.006 | [5] 0.023

LEO1 (UniProt Q8WVC0)
inactive: [1] -0.009 | [2] 0.046 | [3] -0.009 | [4] -0.016 | [5] -0.011

LMBR1 isoform 3 (UniProt Q8WVP7)
inactive: [1] -0.194 | [2] 0.147 | [3] -0.134 | [4] -0.349 | [5] 0.078

LRPPRC (UniProt P42704)
inactive: [1] -0.312 | [2] -0.059 | [3] 0.257 | [4] -0.031 | [5] -0.05

LAMTOR2 (UniProt Q9Y2Q5)
inactive: [1] 0.037 | [2] -0.011 | [3] -0.037 | [4] -0.098 | [5] 0.072

LPIN1 isoform 7 (UniProt Q14693)
inactive: [1] -0.071 | [2] 0.086 | [3] 0.071 | [4] 0.02 | [5] 0.023

LANCL2 (UniProt Q9NS86)
inactive: [1] 0.01 | [2] 0 | [3] -0.007 | [4] -0.021 | [5] 0.043

LASP1 (UniProt Q14847)
inactive: [1] 0.018 | [2] -0.008 | [3] -0.033 | [4] -0.005 | [5] 0.01

LARS2 (UniProt Q15031)
inactive: [1] -0.014 | [2] 0.085 | [3] 0.063 | [4] -0.019 | [5] 0

LRRC42 (UniProt Q9Y546)
inactive: [1] -0.052 | [2] 0.036 | [3] 0.382 | [4] 0.135 | [5] 0.064

Seven successive entries already listed, for reference:
LMBR1 isoform 3 (UniProt Q8WVP7)
inactive: [1] -0.194 | [2] 0.147 | [3] -0.134 | [4] -0.349 | [5] 0.078

LRPPRC (UniProt P42704)
inactive: [1] -0.312 | [2] -0.059 | [3] 0.257 | [4] -0.031 | [5] -0.05

LAMTOR2 (UniProt Q9Y2Q5)
inactive: [1] 0.037 | [2] -0.011 | [3] -0.037 | [4] -0.098 | [5] 0.072

LPIN1 isoform 7 (UniProt Q14693)
inactive: [1] -0.071 | [2] 0.086 | [3] 0.071 | [4] 0.02 | [5] 0.023

LANCL2 (UniProt Q9NS86)
inactive: [1] 0.01 | [2] 0 | [3] -0.007 | [4] -0.021 | [5] 0.043

LASP1 (UniProt Q14847)
inactive: [1] 0.018 | [2] -0.008 | [3] -0.033 | [4] -0.005 | [5] 0.01

LARS2 (UniProt Q15031)
inactive: [1] -0.014 | [2] 0.085 | [3] 0.063 | [4] -0.019 | [5] 0

Additional results:

LAMP2 (UniProt P13473)
inactive: [1] 0.022 | [2] -0.006 | [3] -0.041 | [4] -0.078 | [5] 0.074

LRIF1 (UniProt Q5T3J3)
inactive: [1] 0.05 | [2] 0.029 | [3] 0.005 | [4] 0.005 | [5] 0.028

LDB1 (UniProt Q86U70)
inactive: [1] 0.009 | [2] 0.011 | [3] 0.026 | [4] 0.013 | [5] 0.014

LNPK (UniProt Q9C0E8)
inactive: [1] 0.015 | [2] 0.015 | [3] 0.009 | [4] -0.01 | [5] 0.016

LMO2 isoform 3 (UniProt P25791)
inactive: [1] -0.045 | [2] -0.002 | [3] 0 | [4] 0.003 | [5] -0.004

LARP7 isoform 3 (UniProt Q4G0J3)
inactive: [1] 0.018 | [2] -0.032 | [3] 0.045 | [4] -0.048 | [5] 0.027

LMF2 (UniProt Q9BU23)
inactive: [1] -0.001 | [2] -0.013 | [3] 0.097 | [4] -0.012 | [5] -0.053

LCLAT1 (UniProt Q6UWP7)
inactive: [1] 0.007 | [2] 0.008 | [3] 0.035 | [4] -0.049 | [5] 0.002

LIMD1 (UniProt Q9UGP4)
inactive: [1] 0.006 | [2] 0.004 | [3] -0.014 | [4] -0.005 | [5] 0.028
